Laboratory results: publication PMC12823884
No constants are given. Whether binding was seen depends on the method and setting. Binding seen in cells or lysates may run through a third protein. Some results given as binding are weak or reduced against the parent protein; the word gives no strength.

Sequences of proteins named here, by UniProt entry; tags and fusion partners are left off.
UniProt P52332: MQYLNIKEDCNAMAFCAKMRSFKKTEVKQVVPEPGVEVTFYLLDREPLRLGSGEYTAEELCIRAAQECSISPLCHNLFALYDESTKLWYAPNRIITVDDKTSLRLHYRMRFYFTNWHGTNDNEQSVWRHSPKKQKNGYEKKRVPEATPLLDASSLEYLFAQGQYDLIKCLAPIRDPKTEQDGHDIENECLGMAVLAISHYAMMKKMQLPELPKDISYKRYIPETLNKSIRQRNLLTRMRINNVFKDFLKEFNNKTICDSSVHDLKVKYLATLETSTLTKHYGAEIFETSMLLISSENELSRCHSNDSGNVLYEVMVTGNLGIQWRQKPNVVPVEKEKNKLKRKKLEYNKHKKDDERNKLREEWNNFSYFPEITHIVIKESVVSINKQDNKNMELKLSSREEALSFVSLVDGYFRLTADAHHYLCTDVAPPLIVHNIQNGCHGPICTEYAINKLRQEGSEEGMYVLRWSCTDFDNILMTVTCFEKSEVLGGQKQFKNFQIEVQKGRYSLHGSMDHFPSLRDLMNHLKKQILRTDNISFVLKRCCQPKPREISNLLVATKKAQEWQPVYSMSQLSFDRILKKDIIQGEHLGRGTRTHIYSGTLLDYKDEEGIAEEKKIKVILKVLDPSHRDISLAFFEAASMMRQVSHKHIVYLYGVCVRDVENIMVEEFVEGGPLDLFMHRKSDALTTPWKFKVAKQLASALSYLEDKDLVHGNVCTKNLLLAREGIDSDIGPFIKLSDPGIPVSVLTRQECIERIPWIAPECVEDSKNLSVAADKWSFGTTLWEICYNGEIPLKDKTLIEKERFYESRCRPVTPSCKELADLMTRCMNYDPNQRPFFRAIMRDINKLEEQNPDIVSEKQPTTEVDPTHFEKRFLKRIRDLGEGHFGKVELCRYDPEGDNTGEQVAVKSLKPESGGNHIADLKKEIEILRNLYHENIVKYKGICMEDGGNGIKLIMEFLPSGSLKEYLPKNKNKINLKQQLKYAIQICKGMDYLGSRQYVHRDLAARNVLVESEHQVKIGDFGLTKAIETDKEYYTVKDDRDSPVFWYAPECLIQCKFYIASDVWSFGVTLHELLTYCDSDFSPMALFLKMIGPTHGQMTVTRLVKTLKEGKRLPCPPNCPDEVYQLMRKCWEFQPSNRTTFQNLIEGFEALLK

Molecular target: Janus kinase 1 (mouse (endogenous in BMDMs)) (UniProt P52332)
Assay: co-IP; BMDMs stimulated with IL-4 (20 ng/mL) for 30 min; NP-40 lysis buffer with protease and phosphatase inhibitors; 2 ug anti-JAK1 antibody (or mouse IgG) overnight at 4 °C, protein A/G magnetic beads, four washes, Western blot

B1: Signal Transducer And Activator Of Transcription 6 (protein, UniProt P52633 1-837)
chain: MSLWGLISKMSPEKLQRLYVDFPQRLRHLLADWLESQPWEFLVGSDAFCYNMASALLSATVQRLQATAGEQGKGNSILPHISTLESIYQRDPLKLVATIRQILQGEKKAVIEEFRHLPGPFHRKQEELKFTTALGRLQHRVRETRLLRESLQQGAKTGQVSLQNLIDPPVNGPGPSEDLATMLQGTVGDLEATQALVLKRIQIWKRQQQLAGNGTPFEESLAGLQERCESLVEIYSQLQQEIGAASGELEPKTRASLISRLDEVLRTLVTSSFLVEKQPPQVLKTQTKFQAGVRFLLGLQFLGTSAKPPMVRADMVTEKQARELSLAQGPGTGVESTGEIMNNTVPLENSIPSNCCSALFKNLLLKKIKRCERKGTESVTEEKCAVLFSTSFTLGPNKLLIQLQALSLPLVVIVHGNQDNNAKATILWDNAFSEMDRVPFVVAERVPWEKMCETLNLKFMAEVGTSRGLLPEHFLFLAQKIFNDNSLSVEAFQHRCVSWSQFNKEILLGRGFTFWQWFDGVLDLTKRCLRSYWSDRLIIGFISKQYVTSLLLNEPDGTFLLRFSDSEIGGITIAHVIRGQDGSSQIENIQPFSAKDLSIRSLGDRIRDLAQLKNLYPKKPKDEAFRSHYKPEQMGKDGRGYVSTTIKMTVERDQPLPTPEPQMPAMVPPYDLGMAPDASMQLSSDMGYPPQSIHSFQSLEESMSVLPSFQEPHLQMPPNMSQITMPFDQPHPQGLLQCQSQEHAVSSPEPMLCSDVTMVEDSCLTQPVGGFPQGTWVSEDMYPPLMPPTEQDLTKLLLENQGEAGGSLGSQPLLQPSPYGQSGISLSHLDLRTNPSW
  binding: binds
